Only a part is listed here, and it is no random draw. This is a noisy data set.
Compound: COC(=O)/C=C/c1ccccc1 [methyl cinnamate]
Test: log2 ratio of iodoacetamide-alkyne labeling of the cysteine site, DMSO over compound (competition); higher = stronger covalent engagement of the cysteine by the compound, active = 1 or more
Conditions: 500 µM; treatment time 1 h; system: HEK293T cell lysate
How it was run: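 After 1 h at ambient temperature with vehicle or electrophile (500 µM), HEK293T lysate (2 mg/mL) was labelled for 1 h with iodoacetamide alkyne and clicked to sCIP-TMT reagents. Pooled samples were trypsin-digested overnight at 37 °C, streptavidin-enriched, acid-eluted and analysed by Orbitrap Eclipse LC-MS/MS with FAIMS, then quantified in FragPipe over three replicates with duplicate channels. A cysteine's log2 competition ratio is its mean control-channel over mean compound-channel reporter intensity. Cysteines quantified in only one replicate were not included.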

Sequences of proteins named here, by UniProt entry; tags and fusion partners are left off. A change or cut given only in a name is not applied to a line headed by its entry.
UniProt O75643, whole entry, looked up: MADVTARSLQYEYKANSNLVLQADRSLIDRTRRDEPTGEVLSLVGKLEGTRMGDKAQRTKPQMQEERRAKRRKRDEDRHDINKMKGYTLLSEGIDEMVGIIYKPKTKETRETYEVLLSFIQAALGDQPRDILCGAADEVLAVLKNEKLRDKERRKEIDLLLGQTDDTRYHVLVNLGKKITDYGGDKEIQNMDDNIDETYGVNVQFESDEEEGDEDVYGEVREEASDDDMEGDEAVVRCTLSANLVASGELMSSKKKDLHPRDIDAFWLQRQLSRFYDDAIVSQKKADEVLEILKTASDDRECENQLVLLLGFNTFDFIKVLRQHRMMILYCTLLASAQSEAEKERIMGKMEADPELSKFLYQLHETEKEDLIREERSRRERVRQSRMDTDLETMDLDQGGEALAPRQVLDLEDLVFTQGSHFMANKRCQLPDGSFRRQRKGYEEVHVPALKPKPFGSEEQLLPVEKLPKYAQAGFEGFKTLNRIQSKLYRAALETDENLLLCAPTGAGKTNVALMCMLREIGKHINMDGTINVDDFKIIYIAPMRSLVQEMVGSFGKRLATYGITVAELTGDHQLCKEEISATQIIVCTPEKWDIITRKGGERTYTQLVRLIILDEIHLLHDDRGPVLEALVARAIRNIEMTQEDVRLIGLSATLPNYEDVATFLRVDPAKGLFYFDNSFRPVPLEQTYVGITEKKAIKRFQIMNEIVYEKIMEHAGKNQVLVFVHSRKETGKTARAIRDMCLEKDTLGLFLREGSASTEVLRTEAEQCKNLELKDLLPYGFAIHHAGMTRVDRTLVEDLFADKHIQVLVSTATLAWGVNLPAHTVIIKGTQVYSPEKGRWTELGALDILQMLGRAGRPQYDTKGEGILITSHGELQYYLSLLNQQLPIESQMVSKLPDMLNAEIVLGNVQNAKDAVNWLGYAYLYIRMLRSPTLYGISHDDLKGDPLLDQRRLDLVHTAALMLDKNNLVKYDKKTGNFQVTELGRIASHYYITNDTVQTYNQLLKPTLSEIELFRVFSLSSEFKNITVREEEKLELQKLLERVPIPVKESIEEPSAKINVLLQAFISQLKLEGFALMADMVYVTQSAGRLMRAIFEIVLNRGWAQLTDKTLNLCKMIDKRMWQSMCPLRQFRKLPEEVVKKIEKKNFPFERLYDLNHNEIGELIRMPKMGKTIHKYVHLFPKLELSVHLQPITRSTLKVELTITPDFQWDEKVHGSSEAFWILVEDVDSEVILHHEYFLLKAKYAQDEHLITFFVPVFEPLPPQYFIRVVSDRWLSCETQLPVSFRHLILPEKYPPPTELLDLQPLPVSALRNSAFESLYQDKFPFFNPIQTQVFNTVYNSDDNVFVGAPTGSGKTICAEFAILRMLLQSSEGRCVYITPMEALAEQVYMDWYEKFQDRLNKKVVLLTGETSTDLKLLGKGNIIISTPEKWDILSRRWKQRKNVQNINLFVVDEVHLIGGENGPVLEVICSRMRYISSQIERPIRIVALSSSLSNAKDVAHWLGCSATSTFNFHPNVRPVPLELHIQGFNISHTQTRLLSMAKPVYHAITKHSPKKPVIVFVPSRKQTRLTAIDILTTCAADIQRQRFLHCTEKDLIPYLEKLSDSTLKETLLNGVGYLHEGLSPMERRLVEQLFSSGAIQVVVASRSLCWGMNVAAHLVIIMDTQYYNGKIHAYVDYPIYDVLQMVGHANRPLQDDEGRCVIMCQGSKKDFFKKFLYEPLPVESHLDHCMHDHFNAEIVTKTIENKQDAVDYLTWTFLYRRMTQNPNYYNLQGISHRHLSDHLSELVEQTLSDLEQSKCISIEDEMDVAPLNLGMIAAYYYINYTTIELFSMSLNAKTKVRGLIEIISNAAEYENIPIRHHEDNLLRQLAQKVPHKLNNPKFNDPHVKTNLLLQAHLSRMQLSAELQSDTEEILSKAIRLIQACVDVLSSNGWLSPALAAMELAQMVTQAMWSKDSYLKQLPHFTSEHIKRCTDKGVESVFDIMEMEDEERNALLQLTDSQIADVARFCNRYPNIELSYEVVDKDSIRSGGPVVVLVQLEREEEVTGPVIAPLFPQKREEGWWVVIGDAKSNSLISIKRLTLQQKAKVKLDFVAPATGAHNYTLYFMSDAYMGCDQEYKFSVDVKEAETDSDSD
UniProt O75449: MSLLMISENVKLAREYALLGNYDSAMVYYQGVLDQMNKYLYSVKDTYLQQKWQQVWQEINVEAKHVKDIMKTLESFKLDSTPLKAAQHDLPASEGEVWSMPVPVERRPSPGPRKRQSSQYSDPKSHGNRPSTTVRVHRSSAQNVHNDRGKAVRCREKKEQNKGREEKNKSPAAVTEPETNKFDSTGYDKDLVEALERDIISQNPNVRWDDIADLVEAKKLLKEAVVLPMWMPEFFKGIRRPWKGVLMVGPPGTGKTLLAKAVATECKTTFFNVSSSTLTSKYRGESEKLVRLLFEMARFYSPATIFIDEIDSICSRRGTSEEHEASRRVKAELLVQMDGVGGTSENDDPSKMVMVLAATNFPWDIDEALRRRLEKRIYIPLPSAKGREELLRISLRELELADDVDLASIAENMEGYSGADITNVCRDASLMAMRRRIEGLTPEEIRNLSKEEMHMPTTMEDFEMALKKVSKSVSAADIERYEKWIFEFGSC
UniProt O60343: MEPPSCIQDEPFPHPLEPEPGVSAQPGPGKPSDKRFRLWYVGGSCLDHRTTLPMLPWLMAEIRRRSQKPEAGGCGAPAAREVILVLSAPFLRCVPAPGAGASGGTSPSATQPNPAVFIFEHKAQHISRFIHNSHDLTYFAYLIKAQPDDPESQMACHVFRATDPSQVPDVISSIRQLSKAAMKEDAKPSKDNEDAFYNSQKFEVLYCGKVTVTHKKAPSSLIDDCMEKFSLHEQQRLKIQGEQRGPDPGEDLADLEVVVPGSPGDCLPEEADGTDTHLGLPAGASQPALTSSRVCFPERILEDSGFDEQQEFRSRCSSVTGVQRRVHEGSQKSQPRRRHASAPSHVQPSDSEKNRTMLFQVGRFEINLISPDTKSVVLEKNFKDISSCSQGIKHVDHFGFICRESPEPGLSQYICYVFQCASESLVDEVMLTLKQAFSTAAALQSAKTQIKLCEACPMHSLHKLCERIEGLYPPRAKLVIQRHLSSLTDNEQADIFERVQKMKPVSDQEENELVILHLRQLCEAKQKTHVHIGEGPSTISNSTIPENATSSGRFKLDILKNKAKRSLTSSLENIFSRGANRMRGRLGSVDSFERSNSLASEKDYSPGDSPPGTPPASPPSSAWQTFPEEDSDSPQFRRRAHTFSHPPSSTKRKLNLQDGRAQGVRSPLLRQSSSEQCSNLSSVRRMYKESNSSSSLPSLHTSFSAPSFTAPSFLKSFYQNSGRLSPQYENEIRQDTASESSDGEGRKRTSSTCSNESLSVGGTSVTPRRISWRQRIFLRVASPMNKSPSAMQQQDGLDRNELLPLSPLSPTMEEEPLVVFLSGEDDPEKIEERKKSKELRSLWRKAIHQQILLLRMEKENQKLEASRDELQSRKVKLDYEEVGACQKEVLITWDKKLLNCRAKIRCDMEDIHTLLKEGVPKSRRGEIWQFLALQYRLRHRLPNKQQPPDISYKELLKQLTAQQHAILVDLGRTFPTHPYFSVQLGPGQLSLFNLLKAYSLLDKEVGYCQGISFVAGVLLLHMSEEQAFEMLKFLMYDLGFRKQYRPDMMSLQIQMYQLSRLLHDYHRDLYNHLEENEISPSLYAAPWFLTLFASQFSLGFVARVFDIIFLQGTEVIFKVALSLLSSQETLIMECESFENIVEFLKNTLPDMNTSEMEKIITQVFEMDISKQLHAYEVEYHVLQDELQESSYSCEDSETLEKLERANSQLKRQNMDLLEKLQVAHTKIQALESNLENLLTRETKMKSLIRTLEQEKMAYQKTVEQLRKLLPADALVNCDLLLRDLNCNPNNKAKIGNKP
UniProt O75369, whole entry, looked up: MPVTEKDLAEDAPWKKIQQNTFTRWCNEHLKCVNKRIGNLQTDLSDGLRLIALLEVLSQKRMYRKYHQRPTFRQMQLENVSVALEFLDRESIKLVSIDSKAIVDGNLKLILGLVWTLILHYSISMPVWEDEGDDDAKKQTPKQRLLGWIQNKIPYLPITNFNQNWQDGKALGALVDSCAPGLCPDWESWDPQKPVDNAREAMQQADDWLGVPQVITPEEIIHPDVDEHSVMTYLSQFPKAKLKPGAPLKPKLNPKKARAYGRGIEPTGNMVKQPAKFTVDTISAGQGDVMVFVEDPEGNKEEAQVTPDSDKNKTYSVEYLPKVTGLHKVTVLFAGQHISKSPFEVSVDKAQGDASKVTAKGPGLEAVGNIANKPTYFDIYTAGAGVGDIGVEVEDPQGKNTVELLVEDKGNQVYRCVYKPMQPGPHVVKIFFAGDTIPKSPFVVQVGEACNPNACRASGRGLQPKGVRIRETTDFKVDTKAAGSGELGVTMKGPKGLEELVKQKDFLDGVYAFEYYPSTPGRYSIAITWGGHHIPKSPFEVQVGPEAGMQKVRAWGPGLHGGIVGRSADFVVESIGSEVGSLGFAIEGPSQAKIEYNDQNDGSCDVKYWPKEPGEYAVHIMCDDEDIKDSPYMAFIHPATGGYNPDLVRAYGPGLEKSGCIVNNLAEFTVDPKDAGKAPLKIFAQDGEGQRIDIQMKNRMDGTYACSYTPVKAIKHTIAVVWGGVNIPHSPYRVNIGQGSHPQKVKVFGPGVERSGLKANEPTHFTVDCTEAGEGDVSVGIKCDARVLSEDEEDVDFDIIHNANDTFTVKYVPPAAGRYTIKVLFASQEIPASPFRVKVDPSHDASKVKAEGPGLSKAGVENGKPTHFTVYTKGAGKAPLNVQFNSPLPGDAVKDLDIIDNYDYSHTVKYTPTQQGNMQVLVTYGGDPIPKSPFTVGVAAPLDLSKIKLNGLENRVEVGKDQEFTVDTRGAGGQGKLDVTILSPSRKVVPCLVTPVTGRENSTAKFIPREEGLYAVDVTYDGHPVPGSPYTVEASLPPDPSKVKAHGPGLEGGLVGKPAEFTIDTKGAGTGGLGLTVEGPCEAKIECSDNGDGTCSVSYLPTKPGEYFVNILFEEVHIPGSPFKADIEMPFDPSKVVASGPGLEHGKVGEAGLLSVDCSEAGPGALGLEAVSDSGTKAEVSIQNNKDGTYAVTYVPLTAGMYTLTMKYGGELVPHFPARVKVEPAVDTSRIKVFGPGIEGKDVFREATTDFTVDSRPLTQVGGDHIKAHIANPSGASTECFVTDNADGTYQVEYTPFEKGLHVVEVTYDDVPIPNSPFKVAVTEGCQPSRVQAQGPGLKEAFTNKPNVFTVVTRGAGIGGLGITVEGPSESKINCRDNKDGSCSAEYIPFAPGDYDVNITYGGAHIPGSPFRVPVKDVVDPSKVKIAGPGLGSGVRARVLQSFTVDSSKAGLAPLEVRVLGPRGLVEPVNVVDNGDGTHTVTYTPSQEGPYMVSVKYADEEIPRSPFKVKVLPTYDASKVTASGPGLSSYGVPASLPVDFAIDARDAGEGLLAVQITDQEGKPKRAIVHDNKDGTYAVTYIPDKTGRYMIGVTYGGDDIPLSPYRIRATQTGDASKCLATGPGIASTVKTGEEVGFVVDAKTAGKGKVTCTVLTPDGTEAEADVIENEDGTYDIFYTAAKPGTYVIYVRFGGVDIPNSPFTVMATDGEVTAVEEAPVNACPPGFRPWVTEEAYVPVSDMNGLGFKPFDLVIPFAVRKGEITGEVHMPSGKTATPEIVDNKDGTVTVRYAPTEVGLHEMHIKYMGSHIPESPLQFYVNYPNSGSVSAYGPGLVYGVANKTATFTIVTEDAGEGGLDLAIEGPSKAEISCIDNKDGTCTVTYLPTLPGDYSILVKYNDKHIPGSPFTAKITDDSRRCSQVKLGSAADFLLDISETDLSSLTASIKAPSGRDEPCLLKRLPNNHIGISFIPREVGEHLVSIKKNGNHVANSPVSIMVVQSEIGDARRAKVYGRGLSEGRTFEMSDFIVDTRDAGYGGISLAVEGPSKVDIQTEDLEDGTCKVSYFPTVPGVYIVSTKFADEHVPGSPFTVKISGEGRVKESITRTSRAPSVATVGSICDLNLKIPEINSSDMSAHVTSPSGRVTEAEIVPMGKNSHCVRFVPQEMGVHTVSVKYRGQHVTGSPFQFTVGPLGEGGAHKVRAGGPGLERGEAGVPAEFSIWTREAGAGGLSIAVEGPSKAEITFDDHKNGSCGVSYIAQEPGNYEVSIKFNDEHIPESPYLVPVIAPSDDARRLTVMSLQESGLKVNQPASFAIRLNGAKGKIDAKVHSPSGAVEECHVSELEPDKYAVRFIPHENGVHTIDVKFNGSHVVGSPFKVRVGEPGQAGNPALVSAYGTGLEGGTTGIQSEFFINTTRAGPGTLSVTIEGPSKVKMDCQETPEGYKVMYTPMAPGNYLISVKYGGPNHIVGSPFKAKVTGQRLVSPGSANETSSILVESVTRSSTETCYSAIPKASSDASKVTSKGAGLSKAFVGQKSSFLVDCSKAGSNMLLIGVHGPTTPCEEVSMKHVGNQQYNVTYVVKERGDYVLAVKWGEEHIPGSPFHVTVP

log2 ratio of iodoacetamide-alkyne labeling, inactive:
ROCK2 C247 (UniProt O75116) -0.0531
EIF5B C635 (UniProt O60841) 0.104
USO1 C27 (UniProt O60763) 0.254
NCOR1 C2322 (UniProt O75376) 0.415
SNRNP200 C2011 (UniProt O75643) 0.0166
KATNA1 C491 (UniProt O75449) -0.134
UniProt O60502_C896 0.245
PMPCB C265 (UniProt O75439) -0.266
UniProt O75153_C333 -0.227
SNRNP200 C133 (UniProt O75643) -0.0688
ROCK2 C607 (UniProt O75116) 0.465
NPM3 C105 (UniProt O75607) 0.0963
PAPSS1 C165 (UniProt O43252) 0.00865
TBC1D4 C1286 (UniProt O60343) 0.184
AP1G1 C31 (UniProt O43747) 0.189
SNRNP200 C428 (UniProt O75643) 0.131
OPA1 C786 (UniProt O60313) 0.226
EIF5B C720 (UniProt O60841) -0.116
UniProt O75192_C203 0.411
RNGTT C419 (UniProt O60942) 0.213
FLNB C660 (UniProt O75369) -0.000467
GGCT C6 (UniProt O75223) 0.127
CSDE1 C42 (UniProt O75534) 0.0415
EPB41L2 C232 (UniProt O43491) 0.26
ZW10 C124 (UniProt O43264) -0.223
FLNB C1617 (UniProt O75369) 0.152
PAPSS1 C360 (UniProt O43252) 0.148
SF3B1 C1035 (UniProt O75533) 0.13
FLNB C991 (UniProt O75369) -0.00659
SNX3 C140 (UniProt O60493) 0.184
NMT2 C104 (UniProt O60551) 0.279
EVI5 C451 (UniProt O60447) 0.148
GLRX3 C229 (UniProt O76003) 0.162
SMNDC1 C214 (UniProt O75940) 0.327
ANKRD17 C1622 (UniProt O75179) 0.3
CPNE3 C506 (UniProt O75131) -0.301
UTP20 C1757 (UniProt O75691) 0.0427

Two records drawn at random from those above, as already listed:
log2 ratio of iodoacetamide-alkyne labeling, inactive:
UniProt O75192_C203 0.411
GLRX3 C229 (UniProt O76003) 0.162

From the supplement of paper PMC11006884
